{"sequences": {"note": "Protein sequences, listed by entry. Tags and fused reporters are not part of them. Lines headed by an entry give the natural chain unless they say otherwise; changes in a name come on top.", "UniProt P18054": "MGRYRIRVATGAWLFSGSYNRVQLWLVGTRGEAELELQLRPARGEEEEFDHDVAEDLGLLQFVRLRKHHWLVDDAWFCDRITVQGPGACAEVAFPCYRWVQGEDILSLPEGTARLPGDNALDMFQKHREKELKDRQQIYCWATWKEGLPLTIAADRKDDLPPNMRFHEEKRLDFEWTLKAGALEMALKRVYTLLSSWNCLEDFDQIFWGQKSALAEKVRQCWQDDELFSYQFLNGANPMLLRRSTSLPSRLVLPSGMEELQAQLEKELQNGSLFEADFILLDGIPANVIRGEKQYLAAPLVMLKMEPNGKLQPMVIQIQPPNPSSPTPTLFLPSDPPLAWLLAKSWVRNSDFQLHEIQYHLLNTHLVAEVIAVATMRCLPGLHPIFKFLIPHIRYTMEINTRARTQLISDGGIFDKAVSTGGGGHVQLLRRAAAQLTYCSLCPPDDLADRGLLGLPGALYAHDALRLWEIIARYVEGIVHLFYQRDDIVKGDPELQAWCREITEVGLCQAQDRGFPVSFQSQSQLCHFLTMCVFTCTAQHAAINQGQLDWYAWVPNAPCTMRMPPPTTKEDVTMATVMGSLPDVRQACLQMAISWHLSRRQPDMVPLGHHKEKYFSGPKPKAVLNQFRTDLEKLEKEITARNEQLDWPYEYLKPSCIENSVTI"}, "source": "PubChem BioAssay AID1671190", "about": "(National Center for Advancing Translational Sciences (NCATS), 2021)", "note": "Values joined by “and” are separate entries in the source; they are usually repeats but may differ in a detail not shown here. Equal entries are not always repeated. The whole screen tested about 580,000 compounds, of which about 6,100 (1.1%) were called active. Inconclusive means that the source gave no clear call. Such entries were picked first, then a sample of the others. The call rests on the fitted dose curve; in most records, active means well fitted inhibition curve with a large enough effect; inconclusive means small, poorly fitted or top-dose-only effect, or another doubt; inactive means no such curve, though single readings can be large or run the other way. Where the call is inconclusive, the potency comes from a doubtful curve fit. On the % scale 0 is the no-effect control and ±100 the full control effect; potency means the concentration at half of the fitted maximal effect."}
{"target": "Polyunsaturated fatty acid lipoxygenase ALOX12 (Homo sapiens) (UniProt P18054)", "test": "Primary qHTS assay for inhibitors of human arachidonate 12S-lipoxygenase (ALOX12): Round 2", "details": "purified 12hLO, xylenol orange hydroperoxide absorbance; activity change, negative = inhibition: at 108 µM (top of the series)", "how_it_was_run": "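Hydroperoxide product was detected by ferrous iron/xylenol orange as the 573 to 405 nm absorbance ratio. Arachidonic acid at 40 uM (final) was turned over for 30 min at room temperature by 150 nM human 12hLO, pH 7.0 Hepes buffer, after 15 min compound preincubation.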"}
{"smiles": "CC(=O)NC[C@H]1C[C@@H]2CCN1C[C@@H]2c1cc(-c2ccccc2)nc(C)n1", "activity change, negative = inhibition": "inactive: 15.6% [at 176 µM]"}
{"smiles": "O=C(NC1CC1)c1cn(Cc2ccccc2)nc1-c1ccccc1", "activity change, negative = inhibition": "inconclusive: -33.7% [inhibitor]"}
{"smiles": "O=C1NC(=O)C(=Cc2ccccc2[N+](=O)[O-])C(=O)N1", "Potency": "inconclusive: 89.1 µM [inhibitor, partial curve, poor fit]"}
{"smiles": "Cc1cc(C)cc(N2C(=O)NC(=O)C3(Cc4cc(C)ccc4N(C)C3)C2=O)c1", "note": "(centres undefined)", "Potency": "inconclusive: 31.6 µM [inhibitor, partial curve, poor fit]"}
{"smiles": "N#CC1=C(N)Oc2c(c(=O)sc3ccccc23)C1c1ccncc1", "note": "(centres undefined)", "activity change, negative = inhibition": "inactive: -7.12%"}
{"smiles": "COc1ccc(-c2cc([C@H]3CN4CC[C@H]3C[C@@H]4CNCc3ccccn3)n(C)n2)cc1", "activity change, negative = inhibition": "inactive: 75.4% [at 176 µM]"}
{"smiles": "COc1ccc2c(c1)C1(CCN(C(=O)NCC(C)C)C1)C(=O)N2", "note": "(centres undefined)", "activity change, negative = inhibition": "inactive: 12.3%"}
{"smiles": "COc1cccc(C(c2nnnn2Cc2ccccc2)N2CCC3(CC2)C(=O)NCN3c2ccccc2)c1OC", "note": "(centres undefined)", "Potency": "inconclusive: 39.8 µM [inhibitor, partial curve]"}
{"smiles": "CCOc1cc(CNCCc2c[nH]c3ccc(OC)cc23)ccc1O", "Potency": "inconclusive: 126 µM [inhibitor, partial curve, poor fit]"}
{"smiles": "Cc1cccn2c(=O)c3c(nc12)N1CCC(Cc2ccccc2)CC1C1(C3)C(=O)N(C)C(=O)N(C)C1=O", "note": "(centres undefined)", "Potency": "inconclusive: 126 µM [inhibitor, partial curve, poor fit]"}
{"smiles": "Cc1ccc(S(=O)(=O)Oc2ccccc2C=C2C(=O)NC(=O)NC2=O)cc1", "Potency": "inconclusive: 31.6 µM [inhibitor, partial curve]"}
{"smiles": "O=c1c2ccccc2nc(/C=C/c2ccccc2F)n1-c1ccccc1O", "Potency": "active: 11.2 µM"}
{"smiles": "CCOc1cc2c(cc1OCC)-n1cccc1C(c1ccc(C)cc1C)NC2", "note": "(centres undefined)", "Potency": "inconclusive: 44.7 µM [inhibitor, partial curve, poor fit]"}
{"smiles": "CC(=O)OCC1=C(C(=O)O)N2C(=O)[C@@H](N)[C@@H]2SC1", "Potency": "inconclusive: 12.2 µM [inhibitor, single point]"}
{"smiles": "Cc1cc(O)c2c(C)c(CC(=O)N3CCN(C)CC3)c(=O)oc2c1", "Potency": "inconclusive: 112 µM [inhibitor, single point]"}
{"smiles": "CC(C)NC(=O)[C@H]1CN2CC[C@H]1C[C@@H]2Cn1cc(CO)nn1", "activity change, negative = inhibition": "inactive: 9.55% [at 176 µM]"}
{"smiles": "CN(C)C(Cc1ccc(Cl)cc1)C(=O)c1ccccc1", "note": "(centres undefined)", "Potency": "inconclusive: 39.8 µM [inhibitor, partial curve, poor fit]"}
{"smiles": "CCOC(=O)C1=C(N)Oc2c(c(=O)oc3ccccc23)C12C(=O)Nc1ccc(F)cc12", "note": "(centres undefined)", "activity change, negative = inhibition": "inactive: 4.59%"}
{"smiles": "Cn1c2ccccc2c2c(C(=O)N3CCC4(CC3)OCCO4)cn(C3CCCCC3)c(=O)c21", "activity change, negative = inhibition": "inactive: 0%"}
{"smiles": "O=C(c1ccoc1)N1CC(CO)C2(CCNCC2)C1", "note": "(centres undefined)", "activity change, negative = inhibition": "inactive: 24.9%"}
{"smiles": "N#Cc1cccc(NC(=O)Nc2ccc3n(c2=O)C[C@H]2C[C@@H]3CN(C3CCOCC3)C2)c1", "Potency": "active: 15.8 µM"}
{"smiles": "O=C(c1ccc(C(F)(F)F)cc1)N1CCC(C(=O)O)(c2ccccc2)CC1", "activity change, negative = inhibition": "inactive: 2.65% [at 6.33 µM]"}
{"smiles": "CC1([N+](=O)[O-])COP(=O)(NC2CCCC2)OC1", "note": "(centres undefined)", "Potency": "inconclusive: 89.1 µM [inhibitor, partial curve, poor fit]"}
{"smiles": "COc1cc2c(cc1OCc1ccccc1)NC(=O)C21CCN(Cc2cccc(O)c2)CC1", "Potency": "inconclusive: 50.1 µM [inhibitor, partial curve]"}
{"smiles": "COC(=O)c1ccccc1OP(=O)(c1cccc([N+](=O)[O-])c1)c1cccc([N+](=O)[O-])c1", "Potency": "inconclusive: 44.7 µM [inhibitor, partial curve, poor fit]"}
{"smiles": "CCC1(c2cccc(O)c2)CCCCN(C)C1", "note": "(centres undefined)", "Potency": "inconclusive: 44.7 µM [inhibitor, partial curve, poor fit]", "activity change, negative = inhibition": "inactive: -21.1% [at 22.9 µM]"}
{"smiles": "COC(=O)C1=C(c2cccc(OCc3ccccc3)c2)C[C@@H]2CC[C@H]1N2C(=O)NCc1cc(C)oc1C(F)(F)F", "activity change, negative = inhibition": "inactive: 0.725%"}
{"smiles": "COc1cccc(N=Nc2c(O)[nH]c(=S)[nH]c2=O)c1", "Potency": "inconclusive: 79.4 µM [inhibitor, partial curve, poor fit]"}
{"smiles": "O=C1CC(=O)N(c2cccc(Br)c2)C(=O)N1", "activity change, negative = inhibition": "inactive: -26.1%"}
{"smiles": "Cc1ccc(-n2c(C)cc(/C=C3/C(=O)NC(=O)N(Cc4ccco4)C3=O)c2C)cc1", "Potency": "inconclusive: 31.6 µM [inhibitor, partial curve]"}
{"smiles": "c1ccc(CN2CCC3(CC(c4cccnc4)=NO3)C2)nc1", "note": "(centres undefined)", "activity change, negative = inhibition": "inactive: -13.4% [at 6.33 µM]"}
{"smiles": "Nc1ccc2ccccc2c1", "Potency": "inconclusive: 44.7 µM [inhibitor, partial curve, poor fit]"}
{"smiles": "CC(=O)C1=C(O)[C@@H]2[C@@H]3c4c[nH]c5cccc(c45)C[C@@H]3C(C)(C)N2C1=O", "Potency": "inconclusive: 3.98 µM [inhibitor, full curve, poor fit]"}
{"smiles": "Cc1ccc2c(c1)=NC(=O)/C(=C/c1c(O)[nH]c(=O)[nH]c1=O)C=2", "Potency": "inconclusive: 44.7 µM [inhibitor, partial curve, poor fit]"}
{"smiles": "CS(=N)(=O)CC[C@H](N)C(=O)O", "note": "(some centres undefined)", "Potency": "inconclusive: 44.7 µM [inhibitor, partial curve, poor fit]"}
{"smiles": "COCCOC(=O)c1c(N)n(Cc2ccc(OC)cc2)c2nc3ccccc3nc12", "Potency": "inconclusive: 50.1 µM [inhibitor, partial curve, poor fit]"}
{"smiles": "Cc1ccc(C(c2c(O)c3ccccc3oc2=O)c2c(O)c3ccccc3oc2=O)cc1", "Potency": "active: 12.6 µM"}
{"smiles": "COc1ccccc1NC(=O)Nc1ccc2n(c1=O)C[C@H]1C[C@@H]2CN(C(=O)C(=O)O)C1", "Potency": "inconclusive: 50.1 µM [inhibitor, partial curve]"}
{"smiles": "CCOC(=O)c1c(C)n(Cc2ccco2)c2c1cc(O)c1ccccc12", "Potency": "inconclusive: 31.6 µM [inhibitor, partial curve, poor fit]"}
{"smiles": "O=[N+]([O-])c1ccc(N2CCOCC2)c2cccnc12", "Potency": "inconclusive: 3.16 µM [inhibitor, full curve, poor fit]"}
{"smiles": "O=c1[nH]c(=S)n(C2CC2)c(O)c1/C=N/Nc1cccc2ccccc12", "Potency": "inconclusive: 39.8 µM [inhibitor, full curve, poor fit]"}
{"smiles": "NCCc1ccc(OC(F)F)cc1", "activity change, negative = inhibition": "inactive: -11.3%"}
{"smiles": "O=C(O)CCCCCCCCCCO", "Potency": "inconclusive: 89.1 µM [inhibitor, single point]"}
{"smiles": "COC(=O)C1=C(c2ccc(F)cc2OCc2ccccc2)C[C@@H]2CC[C@H]1N2C(=O)NCc1ccccc1", "activity change, negative = inhibition": "inactive: 0.0601%"}
{"smiles": "O=C(NC(NC(c1ccccc1)C(Cl)Cl)C(Cl)(Cl)Cl)c1ccccc1", "note": "(centres undefined)", "activity change, negative = inhibition": "inconclusive: -32% [inhibitor]"}
{"smiles": "CC1(CCO)C(=O)NC(=S)NC1=O", "Potency": "inconclusive: 56.2 µM [inhibitor, partial curve, poor fit]"}
{"smiles": "Nc1c(C(=O)Nc2ccc(F)c(Cl)c2)sc2nc3c(cc12)N1CCC3CC1", "Potency": "inconclusive: 50.1 µM [inhibitor, partial curve, poor fit]"}
{"smiles": "COc1ccccc1N1C(=O)NC(=O)/C(=C/c2ccc3c4c(cccc24)CC3)C1=O", "Potency": "active: 50.1 µM"}
{"smiles": "COc1ccc(CN2CCN(C(=O)COc3ccc4ccccc4c3)CC2)cc1", "Potency": "inconclusive: 5.01 µM [inhibitor, full curve]"}
{"smiles": "N#CCCn1cc(C(=O)Nc2ccccc2Cl)c(-c2ccc([N+](=O)[O-])cc2)n1", "Potency": "inconclusive: 126 µM [inhibitor, partial curve, poor fit]"}
{"smiles": "O=C(NCc1ccc(F)cc1)[C@H]1CN2CC[C@H]1C[C@@H]2Cn1cc(-c2ccccc2)nn1", "activity change, negative = inhibition": "inactive: 1.13% [at 176 µM]"}
{"smiles": "COc1ccc(Cc2cn(C)c(N)n2)cc1", "activity change, negative = inhibition": "inactive: 45.5%"}
{"smiles": "Cc1ccc(S(=O)(=O)N[C@@H](CCCCN)C(=O)CCl)cc1", "Potency": "inconclusive: 10.2 µM [inhibitor, partial curve] and inconclusive: 31.6 µM [inhibitor, partial curve]"}
{"smiles": "O=C(Oc1ccc([N+](=O)[O-])cc1)N1CCC(C(O)(c2ccc3c(c2)OCO3)c2ccc3c(c2)OCO3)CC1", "Potency": "inconclusive: 7.69 µM [inhibitor, single point]"}
{"smiles": "O=C1NC(=S)N(c2ccc(Br)cc2)C(=O)/C1=C/N1CCN(C(=O)c2ccco2)CC1", "Potency": "inconclusive: 44.7 µM [inhibitor, partial curve, poor fit]"}
{"smiles": "COc1ccc(-c2coc3cc(OCC(=O)N4CCN(C)CC4)ccc3c2=O)cc1", "Potency": "inconclusive: 79.4 µM [inhibitor, single point]"}
{"smiles": "O=C1NC(=S)NC(=O)C1=Cc1ccc(OCC(=O)N2CCCC2)cc1", "Potency": "inconclusive: 39.8 µM [inhibitor, partial curve, poor fit]"}
{"smiles": "C/C(=C\\[C@@H](N)C(=O)O)CP(=O)(O)O", "Potency": "inconclusive: 28.2 µM [inhibitor, single point]"}
{"smiles": "CC1C(c2cccs2)=[N+]([O-])C(C)(C(=O)c2ccc(Cl)cc2)N1O", "note": "(centres undefined)", "Potency": "inconclusive: 63.1 µM [inhibitor, partial curve, poor fit]"}
{"smiles": "CC1=C(C/C(C)=C/c2ccccc2)/C(=C/CO)[C@H](O)[C@](C)(O)C12CC2", "Potency": "inconclusive: 0.251 µM [inhibitor, full curve, poor fit]"}
{"smiles": "Oc1ccc(C2(c3ccc(O)cc3)CCCCC2)cc1", "Potency": "inconclusive: 39.8 µM [inhibitor, partial curve, poor fit]"}
{"smiles": "CCOC(=O)C1C(OC(=O)c2ccccc2)CC2CCC1N2C", "note": "(centres undefined)", "activity change, negative = inhibition": "inactive: -0.0112%"}
{"smiles": "O=C1NC(=O)N(Cc2ccccc2)C(=O)/C1=C/C=C/c1ccco1", "Potency": "inconclusive: 112 µM [inhibitor, single point]"}
